This assay has as its target T1, ANO1 (Ca2+-activated Cl- channel encoded by Ano1) (mouse (endogenous in small intestine muscle and ICC)) (UniProt Q8BHY3).
T1 sequence: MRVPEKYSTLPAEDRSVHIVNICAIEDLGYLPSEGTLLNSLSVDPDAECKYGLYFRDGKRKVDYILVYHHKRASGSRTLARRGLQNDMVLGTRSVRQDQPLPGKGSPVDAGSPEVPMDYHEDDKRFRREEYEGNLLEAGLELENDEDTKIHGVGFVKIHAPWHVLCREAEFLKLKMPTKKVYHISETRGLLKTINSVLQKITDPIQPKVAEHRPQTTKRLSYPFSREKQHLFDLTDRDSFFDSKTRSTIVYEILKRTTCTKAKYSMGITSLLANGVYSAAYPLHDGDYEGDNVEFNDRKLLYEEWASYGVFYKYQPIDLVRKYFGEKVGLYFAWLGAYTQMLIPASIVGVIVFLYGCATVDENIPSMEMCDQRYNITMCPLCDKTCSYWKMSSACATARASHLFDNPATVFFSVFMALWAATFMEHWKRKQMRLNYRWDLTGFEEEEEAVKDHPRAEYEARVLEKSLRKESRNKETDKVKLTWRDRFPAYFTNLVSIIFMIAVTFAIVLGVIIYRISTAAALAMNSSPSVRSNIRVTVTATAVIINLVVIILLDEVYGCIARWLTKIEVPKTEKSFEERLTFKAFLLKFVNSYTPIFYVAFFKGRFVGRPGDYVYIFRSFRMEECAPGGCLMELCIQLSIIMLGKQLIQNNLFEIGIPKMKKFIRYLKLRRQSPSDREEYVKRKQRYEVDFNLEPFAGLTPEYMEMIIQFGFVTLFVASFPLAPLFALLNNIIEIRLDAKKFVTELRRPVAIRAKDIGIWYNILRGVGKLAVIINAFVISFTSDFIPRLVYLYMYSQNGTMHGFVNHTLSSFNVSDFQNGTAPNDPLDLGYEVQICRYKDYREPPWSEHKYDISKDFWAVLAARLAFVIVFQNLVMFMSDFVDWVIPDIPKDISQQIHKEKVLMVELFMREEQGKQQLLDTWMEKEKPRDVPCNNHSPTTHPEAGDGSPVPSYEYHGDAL
The experiment in a line: proximity ligation; isolated small intestinal ICC, fixed in 4% paraformaldehyde and permeabilized; goat anti-NCX3 and rabbit anti-ANO1 primary antibodies, Duolink secondary antibodies; PLA spots per cell divided by cell area and normalized; negative control with rabbit anti-ANO1 and mouse anti-myosin light chain.

No constants are given. Whether binding was seen depends on the method and setting. Binding seen in cells or lysates may run through a third protein.

Experimental findings from PMC7093646 are described below.

With “myosin regulatory light chain (mouse (endogenous in ICC))”, the binding result is “no binding”.
